Measurements as given in PubChem BioAssay AID330 (DTP/NCI, 2004).
The list is a part of this screen's results and no random one: it is rich in T/C values a quarter to a half above the control, in often repeated tests (any T/C) and in doses without a T/C. Further doses and runs are listed elsewhere. T/C is the treated group as % of the vehicle group. Some entries give survivors of the animals treated and no T/C: the source files T/C as zero there, which appears to mark a toxic dose or a test without result, not a measured value. Some survivor counts are full or nearly so, which does not show that the dose was tolerated: the source hardly ever lists a survival T/C far under the control, and the zero likely stands for such cases as well. Counts of survivors are from the toxicity check (mostly the fifth day) where no day follows; animals may have died later. Schedule codes are those of the source, taken here to give the interval after Q, in days (D) or hours (H), and the number of doses after X. Some entries were tested several times; the results are listed from low to high. For survival time, this PubChem deposit counts one and a half times the control or more as active, and values a quarter to a half above the control carry no call in these data; other NCI protocols may use other cut-offs. Some T/C values are followed by the survivors on the day toxicity was checked, most often the fifth; where none is given, no animal had died by that day.

System: P388 leukemia ip, CD2F1 mice, survival T/C
Assay: NCI In Vivo Anticancer Drug Screen. Data for tumor model P388 Leukemia (intraperitoneal) in CD2F1 (CDF1) mice
Conditions: T/C endpoint: median survival time, higher T/C = longer survival
[1] = dose: 240.0 mg/kg/injection, schedule: Q01DX005 (ip), vehicle: saline with Tween-80
[2] = dose: 100.0 mg/kg/injection, schedule: Q01DX009 (ip), vehicle: saline
[3] = dose: 100.0 mg/kg/injection, schedule: Q01DX009 (ip), vehicle: saline with Tween-80
[4] = dose: 200.0 mg/kg/injection, schedule: Q01DX009 (ip), vehicle: saline with Tween-80
[5] = dose: 4.5 mg/kg/injection, schedule: Q01DX009 (ip), vehicle: water
[6] = dose: 200.0 mg/kg/injection, schedule: Q01DX005 (ip), vehicle: Klucel (hydroxypropylcellulose) (HPC)
[7] = dose: 100.0 mg/kg/injection, schedule: Q01DX005 (ip), vehicle: Klucel (hydroxypropylcellulose) (HPC)

For `Cc1ccc(/C=C/C(=N/Nc2ccccc2)C(C)CN(C)C)cc1` (centres undefined), the survivor count [1] was 0 of 6.

For `Cc1ccc(C(=O)Cc2nc(C#N)c(C#N)nc2CC(=O)c2ccc(C)cc2)cc1`, the survivor count [1] was 5 of 6.

In the case of `CNC(=O)OCc1nn(-c2ccc(Cl)c(Cl)c2)c(C)c1COC(=O)NC`, the survivor count (dose: 50.0 mg/kg/injection, schedule: Q01DX009 (ip), vehicle: distilled water + Tween-80) is reported as 6 of 6 and the survivor count (dose: 100.0 mg/kg/injection, schedule: Q01DX009 (ip), vehicle: distilled water + Tween-80) is reported as 6 of 6.

In the case of `C[N+]1(C2CCCCC2c2cccc(O)c2)CCCC1` (centres undefined), the survivor count (dose: 3.12 mg/kg/injection, schedule: Q01DX009 (ip), vehicle: saline) is reported as 0 of 6, the survivor count (dose: 6.25 mg/kg/injection, schedule: Q01DX009 (ip), vehicle: saline) is reported as 0 of 6 and the survivor count (dose: 12.5 mg/kg/injection, schedule: Q01DX009 (ip), vehicle: saline) is reported as 0 of 6. For the same molecule, the survivor count (dose: 50.0 mg/kg/injection, schedule: Q01DX009 (ip), vehicle: saline) was 0 of 6, the survivor count [2] was 0 of 6 and the survivor count (dose: 200.0 mg/kg/injection, schedule: Q01DX009 (ip), vehicle: saline) was 0 of 6.

With `CC(CCCSC(=N)N)SC(=N)N` (centres undefined) the survivor count [2] was 3 of 6.

`Cc1c2cc[n+](C)c(C)c2cc2c1[nH]c1ccc(O)cc12` was tested, and the T/C (dose: 1.56 mg/kg/injection, schedule: Q04DX002 (ip), vehicle: water) was 130 % of control, the T/C (dose: 3.12 mg/kg/injection, schedule: Q04DX002 (ip), vehicle: water) was 135 % of control and the T/C (dose: 5.0 mg/kg/injection, schedule: Q04DX002 (ip), vehicle: water) was 140 % of control. For the same molecule, the T/C (dose: 6.25 mg/kg/injection, schedule: Q04DX002 (ip), vehicle: water) was 141 % of control, the T/C (dose: 12.5 mg/kg/injection, schedule: Q04DX002 (ip), vehicle: water) was 149 % of control and the T/C (dose: 25.0 mg/kg/injection, schedule: Q04DX002 (ip), vehicle: water) was 141 % of control.

`CCCCOCN(CCCN(C)C)COCCCC` was tested, and the T/C (dose: 50.0 mg/kg/injection, schedule: Q01DX009 (ip), vehicle: saline with Tween-80) was 127 % of control, the T/C [3] was 130 % of control and the survivor count [4] was 5 of 6.

With `CCCCCCCCCCC[N+](C)([O-])CCCCCC[N+](C)([O-])CCCCCCCCCCC` (centres undefined) the survivor count [3] was 2 of 6 and the survivor count [4] was 0 of 6.

`CCN(CC)C(=O)c1c2nc3c(C(=O)N(CC)CC)ccc(C)c3oc-2c(C)c(=O)c1N` was tested, and the survivor count [1] was 0 of 6.

In the case of `C1CCC2C[N-]CCC2C1.C1CCC2C[N-]CCC2C1.C1CCC2C[N-]CCC2C1.C1CCC2C[N-]CCC2C1.[Cl][Rh][Cl]` (centres undefined), the T/C (dose: 1.0 mg/kg/injection, schedule: Q01DX009 (ip), vehicle: saline) is reported as 130 % of control, the T/C (dose: 1.0 mg/kg/injection, schedule: Q03HX024 (ip), vehicle: saline) is reported as 131 % of control and the T/C (dose: 1.3 mg/kg/injection, schedule: Q01DX009 (ip), vehicle: water) is reported as 134 % of control. For the same molecule, the T/C (dose: 2.0 mg/kg/injection, schedule: Q01DX009 (ip), vehicle: saline) was 141 % of control [9 of 10 alive], the T/C (dose: 2.0 mg/kg/injection, schedule: Q01DX009 (ip), vehicle: water) was 132 and 138 % of control and the survivor count (dose: 2.0 mg/kg/injection, schedule: Q03HX016 (ip), vehicle: saline) was 5 of 10. For the same molecule, the T/C (dose: 2.0 mg/kg/injection, schedule: Q03HX024 (ip), vehicle: saline) was 136 % of control, the T/C (dose: 3.0 mg/kg/injection, schedule: Q01DX009 (ip), vehicle: water) was 137 % of control and the T/C (dose: 4.0 mg/kg/injection, schedule: Q01DX009 (ip), vehicle: saline) was 140 % of control. For the same molecule, the survivor count (dose: 4.0 mg/kg/injection, schedule: Q03HX008 (ip), vehicle: saline) was 7 of 10, the T/C [5] was 132 % of control [5 of 6 alive] and the survivor count [5] was 6 of 6. The survivor count (dose: 6.7 mg/kg/injection, schedule: Q01DX009 (ip), vehicle: water) was 1 of 6 and 3 of 6, the T/C (dose: 8.0 mg/kg/injection, schedule: Q01DX001 (ip), vehicle: saline) was 128 % of control and the T/C (dose: 8.0 mg/kg/injection, schedule: Q01DX009 (ip), vehicle: saline) was 140 % of control. For the same molecule, the T/C (dose: 8.0 mg/kg/injection, schedule: Q04DX003 (ip), vehicle: saline) was 131 % of control, the T/C (dose: 16.0 mg/kg/injection, schedule: Q01DX001 (ip), vehicle: saline) was 138 % of control and the T/C (dose: 16.0 mg/kg/injection, schedule: Q04DX003 (ip), vehicle: saline) was 141 % of control. The T/C (dose: 16.0 mg/kg/injection, schedule: Q08DX002 (ip), vehicle: saline) was 144 % of control, the T/C (dose: 32.0 mg/kg/injection, schedule: Q01DX001 (ip), vehicle: saline) was 127 % of control and the T/C (dose: 32.0 mg/kg/injection, schedule: Q08DX002 (ip), vehicle: saline) was 131 % of control.

With `C/C(=N/N=C(N)N)c1cnn(C(=N)N)c1C` the survivor count (dose: 240.0 mg/kg/injection, schedule: Q01DX005 (ip), vehicle: Klucel (hydroxypropylcellulose) (HPC)) was 3 of 6.

With `Cc1ccc(Oc2nc(=O)c3c(o2)CC(C)(C)C3)cc1` the T/C [3] was 133 % of control [5 of 6 alive] and the survivor count [4] was 0 of 6 and 3 of 6.

In the case of `N#CN.[Pb]`, the T/C [6] is reported as 126 % of control.

`N#C/C(=N\NC(=O)c1ccccc1Cl)c1ccccc1Cl` was tested, and the survivor count (dose: 200.0 mg/kg/injection, schedule: Q01DX005 (ip), vehicle: saline with Tween-80) was 5 of 6.

For `c1ccc2c(c1)ccc1[nH]c3ccc4ccccc4c3c12`, the T/C (dose: 6.25 mg/kg/injection, schedule: Q01DX005 (ip), vehicle: Klucel (hydroxypropylcellulose) (HPC), evaluated on day 20) was 92 % of control, the T/C (dose: 6.25 mg/kg/injection, schedule: Q01DX005 (ip), vehicle: Klucel (hydroxypropylcellulose) (HPC), evaluated on day 30) was 108, 125, 142 % of control and the T/C (dose: 12.5 mg/kg/injection, schedule: Q01DX005 (ip), vehicle: Klucel (hydroxypropylcellulose) (HPC), evaluated on day 20) was 115 % of control [5 of 6 alive]. For the same molecule, the T/C (dose: 12.5 mg/kg/injection, schedule: Q01DX005 (ip), vehicle: Klucel (hydroxypropylcellulose) (HPC), evaluated on day 30) was 86, 98, 99 % of control, the survivor count (dose: 25.0 mg/kg/injection, schedule: Q01DX005 (ip), vehicle: Klucel (hydroxypropylcellulose) (HPC)) was 2 of 6, 3 of 6, 6 of 6 and the survivor count (dose: 50.0 mg/kg/injection, schedule: Q01DX005 (ip), vehicle: Klucel (hydroxypropylcellulose) (HPC)) was 0 of 6 and 6 of 6. For the same molecule, the survivor count [7] was 2 of 6 and the survivor count [6] was 6 of 6.

`C=CCNC(=O)c1ccccc1SC(C)=O` was tested, and the T/C [3] was 138 % of control, the T/C [4] was 141 % of control and the T/C (dose: 400.0 mg/kg/injection, schedule: Q01DX009 (ip), vehicle: saline with Tween-80) was 130 % of control [5 of 6 alive].

In the case of `CCCCCCC(=O)/C=C/c1ccccc1OC(=O)c1ccc(Cl)cc1`, the survivor count [3] is reported as 6 of 6.

`CCOC(Cn1cc([N+](=O)[O-])c(=O)[nH]c1=O)OCC` was tested, and the survivor count [7] was 3 of 6 and the survivor count [6] was 0 of 6.

For `CCOc1ccc(Nc2ncnc3nc[nH]c23)cc1CN(CCCl)CCCl`, the survivor count (dose: 0.29 mg/kg/injection, schedule: Q04DX003 (ip), vehicle: saline) was 6 of 6, the survivor count (dose: 0.44 mg/kg/injection, schedule: Q04DX003 (ip), vehicle: saline) was 6 of 6 and the survivor count (dose: 0.66 mg/kg/injection, schedule: Q04DX003 (ip), vehicle: saline) was 6 of 6. The survivor count (dose: 1.0 mg/kg/injection, schedule: Q04DX003 (ip), vehicle: saline) was 6 of 6, the T/C (dose: 1.32 mg/kg/injection, schedule: Q01DX009 (ip), vehicle: saline) was 145 % of control and the T/C (dose: 3.13 mg/kg/injection, schedule: Q04DX003 (ip), vehicle: saline) was 136 % of control. For the same molecule, the T/C (dose: 6.25 mg/kg/injection, schedule: Q04DX003 (ip), vehicle: saline) was 140 % of control and the survivor count (dose: 12.5 mg/kg/injection, schedule: Q04DX003 (ip), vehicle: saline) was 1 of 6.

With `COc1cccc2c1C(=O)c1c(O)c3c(c(O)c1C2=O)CC(O)(C(=O)CO)CC3OC1CC(N/C(C)=C/C(C)=O)C(O)C(C)O1` (centres undefined) the T/C (dose: 2.5 mg/kg/injection, schedule: Q04DX003 (ip), vehicle: saline with Tween-80) was 132 % of control, the T/C (dose: 5.0 mg/kg/injection, schedule: Q04DX003 (ip), vehicle: saline with Tween-80) was 149 % of control and the T/C (dose: 20.0 mg/kg/injection, schedule: Q04DX003 (ip), vehicle: saline with Tween-80) was 145 % of control.
